Measured values from patent US9107879B1, “Methods of increasing the cytotoxicity of chemotherapeutic agents with multisubstrate inhibitors of histone, protein-lys, polyamine acetylation, and polyamine metabolism” (Vanderbilt University, priority 2010, dated 2015).
Some of these results come from one statement about several compounds together.

System: H358 cells
Experiment: trypan blue exclusion viability assay
Assay type: cell-based
Details: single agent
Method: Cells were either labeled immediately before treatment (starting DNA synthesis rate), or subjected to the indicated treatments and then pulsed on successive days until day 4. DNA synthesis is represented as the percent of starting DNA synthesis rate. Viability was determined for each treatment condition 24 hours post-start of treatment by the trypan blue exclusion assay, with percentages of viable cells indicated to the right of the graph. […]
Cell viability, measured 18 hours after the start of each treatment by the trypan blue exclusion assay, a measure of cellular membrane integrity, confirmed that single agent treatment with either 1a or camptothecin had essentially no effect on cell viability (≧96% viability for untreated cells or single agent-treated cells).
The present inventors used 96-well viability assays as described in Saadatmandi et al (Cancer Gene Therapy (2002) 9:930-9) to examine the effect of 1a on DNA synthesis in H358 cells, as well as the combined effects of 1a and chemotherapeutic agents. […] Following the 6-hour labeling, cells were harvested and incorporation of [^3H]-thymidine was determined by scintillation counting. […] We measured cell viability 24 hours after the start of each treatment by the trypan blue exclusions assay, a measure of cellular membrane breakdown.

Structure (SMILES): CC[C@@]1(O)C(=O)OCc2c1cc1n(c2=O)Cc2cc3ccccc3nc2-1 [camptothecin, reference compound]
- cell viability, trypan blue exclusion (18 hours after start of treatment): ≥ 96%
- cell viability, trypan blue exclusion (24 hours after start of treatment (Example 1)): ≥ 96%
